Measurements: PMC9814901, “One-pot synthesis of cyclic-aminotropiminium carboxylate derivatives with DNA binding and anticancer properties” (Communications Chemistry, 2022)

System: HeLa cells
Assay: MTS cell viability assay in HeLa
Assay type: cell-based
Description: We investigated the effect of nine cATC derivatives (6b/6d/6e/6f/6i/6j/6k/6l/6n) on cell viability in cancer cell-line HeLa and transformed normal cell-line HEK293. We treated cells with the varying concentrations of the compounds ranging from 10 nM to 50 μM for 18 h (optimized).
MTS assay (CellTiter 96® AQueous One Solution Cell Proliferation Assay (Promega, USA) was used to determine the cell viability. HeLa and HEK293 cells (20,000 cells in each well) were plated in 96 well plate and treated with 6e, 6j, and 6n varying concentrations of the compounds ranging from 10 nM to 50 μM for 18 h. The assay was carried out according to the manufacturer’s instructions. Finally, the plate was read in Varioskan™ LUX multimode microplate reader (Thermo Fisher Scientific) at 490 nm.
Cell scavenging activity was calculated using the following formula:
OD(490nm) (control) – OD(490nm) (Test)/OD(490nm) (control) × 100%
Cell Viability of the cell was calculated using the following formula: […]

Cc1cccc(C2C(C(=O)[O-])N(CCc3ccccc3)c3ccccc[c+]3N2Cc2ccccc2)c1 (stereo not shown) [Compound 6e]
concentration at which fluorescence signal became visible inside cells: 12 µM
